# Data: article PMC10393820
# Chains of the proteins cited; added tags and fusions are not shown.
# UniProt P15311: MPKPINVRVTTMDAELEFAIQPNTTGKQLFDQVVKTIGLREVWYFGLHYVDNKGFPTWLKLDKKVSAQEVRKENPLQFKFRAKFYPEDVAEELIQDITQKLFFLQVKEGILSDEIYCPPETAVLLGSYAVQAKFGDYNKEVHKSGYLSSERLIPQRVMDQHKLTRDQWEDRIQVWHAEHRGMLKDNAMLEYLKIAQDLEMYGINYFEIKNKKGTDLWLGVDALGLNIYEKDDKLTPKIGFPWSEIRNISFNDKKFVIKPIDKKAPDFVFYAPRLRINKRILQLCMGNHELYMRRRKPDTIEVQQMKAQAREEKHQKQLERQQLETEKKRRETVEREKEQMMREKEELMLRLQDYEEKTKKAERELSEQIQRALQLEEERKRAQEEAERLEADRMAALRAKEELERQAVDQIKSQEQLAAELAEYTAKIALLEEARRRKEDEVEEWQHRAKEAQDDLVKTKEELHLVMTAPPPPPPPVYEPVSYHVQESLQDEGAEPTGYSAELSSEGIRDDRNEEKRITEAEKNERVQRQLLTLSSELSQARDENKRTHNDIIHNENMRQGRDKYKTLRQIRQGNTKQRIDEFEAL
# No constants are given. Whether binding was seen depends on the method and setting. Binding seen in cells or lysates may run through a third protein. For part of these data: Tags and fused reporters may be left off the sequences shown.
# Assays:
# Flag-PALM2^C408S (human) = Flag-PALM2^C408S (human) (UniProt Q9Y2D5); experiment: co-IP; Flag IP (anti-DYKDDDDK magnetic agarose) from lysates of transfected HEK 293T cells; lysis buffer 50 mM Tris-HCl pH 7.5, 120 mM NaCl, 0.5% NP-40; 4 °C overnight; Western blot; in Fig. 5C cells with or without FTI 277 for 48 h
# [1] = target: T1, Flag-PALM2^ΔCAAX (the truncated type) (human) (UniProt Q9Y2D5); experiment: as above
# T1 sequence: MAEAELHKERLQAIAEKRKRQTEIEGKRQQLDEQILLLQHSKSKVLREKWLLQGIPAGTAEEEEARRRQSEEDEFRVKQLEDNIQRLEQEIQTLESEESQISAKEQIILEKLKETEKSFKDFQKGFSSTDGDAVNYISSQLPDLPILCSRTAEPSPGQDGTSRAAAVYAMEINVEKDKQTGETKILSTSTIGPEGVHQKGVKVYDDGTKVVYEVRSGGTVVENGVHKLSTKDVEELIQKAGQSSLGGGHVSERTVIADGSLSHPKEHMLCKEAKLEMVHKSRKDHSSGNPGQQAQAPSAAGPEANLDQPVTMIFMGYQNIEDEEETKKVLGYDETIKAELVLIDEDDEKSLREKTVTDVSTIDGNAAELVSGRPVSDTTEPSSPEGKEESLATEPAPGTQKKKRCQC
# [2] = target: Flag-PALM2^C408S (KYSE30 cells) (human) (UniProt Q9Y2D5); experiment: co-IP; immunoprecipitation from lysates of stably transfected KYSE30 cells; lysis buffer 50 mM Tris-HCl pH 7.5, 120 mM NaCl, 0.5% NP-40; Western blot (supplemental Fig. S5A)
Substance,binding (Flag-PALM2^C408S (human)),binding [1],binding [2]
GFP-ezrin (wild type) (from UniProt P15311 1-586),no binding,no binding,
ezrin (KYSE30 cells) (from UniProt P15311 1-586),,,no binding
